Publication PMC5945630
Results are given in words; binding and its absence hold for the method and conditions named. In cells and extracts the contact can be indirect. Some entries that bind do so weakly or less than the wild type.

The chains behind the UniProt entries cited, without tags or fusion partners. Residues count along the entry.
UniProt O76061, residues 25-302: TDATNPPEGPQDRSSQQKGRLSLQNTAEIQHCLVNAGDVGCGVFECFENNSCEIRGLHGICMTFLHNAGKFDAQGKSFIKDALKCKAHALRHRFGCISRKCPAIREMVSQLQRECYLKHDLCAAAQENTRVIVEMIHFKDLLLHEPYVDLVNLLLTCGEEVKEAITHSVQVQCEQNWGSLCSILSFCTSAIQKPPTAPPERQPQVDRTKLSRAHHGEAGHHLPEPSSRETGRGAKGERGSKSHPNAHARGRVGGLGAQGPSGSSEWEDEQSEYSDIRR

Target: T1, heme oxygenase 1 (human (endogenous in MSCs)) (UniProt P09601)
T1 sequence: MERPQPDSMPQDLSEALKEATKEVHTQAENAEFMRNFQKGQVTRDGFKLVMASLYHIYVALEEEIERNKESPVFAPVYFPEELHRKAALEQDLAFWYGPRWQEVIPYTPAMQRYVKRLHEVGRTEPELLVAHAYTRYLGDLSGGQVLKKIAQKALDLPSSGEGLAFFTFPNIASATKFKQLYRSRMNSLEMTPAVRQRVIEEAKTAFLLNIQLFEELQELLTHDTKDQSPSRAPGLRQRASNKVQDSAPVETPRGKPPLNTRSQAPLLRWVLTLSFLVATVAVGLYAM
Experiment: co-IP; proteins collected from human MSCs, immunoprecipitated with anti-HO-1, immunoprecipitate probed with anti-STC2; 5% input as positive control, IgG as negative control

Stanniocalcin-2 (from UniProt O76061 25-302)
binding: binds
